PubChem BioAssay AID652243, Drosophila RNAi Screening Center – 2013
In all, the deposit lists about 24,000 reagents; this is a random part of those that have a named target and a result. Of all reagents, 246 (1%) are marked active. 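Plates not normalised; calls are printed but the firefly/Renilla ratio behind them is not deposited; fold cut for lowering reported inconsistently.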 Raw values vary from plate to plate and are shown uncorrected. A plus sign joins genes that one reagent is predicted to hit. Not given: the amount of reagent.

Purpose: 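Knock-downs that decrease or increase androgen receptor reporter signal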 (primary screen)
System: Drosophila S2R+ cells
Knock-down reagent: long dsRNA against Drosophila genes
Time to read-out: 72 h (48 h, then 24 h hormone)
Challenge: synthetic androgen R1881 at 10 nM for 24 h
Measurement: 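Firefly light from an androgen-responsive reporter and Renilla control light per well, raw and unnormalised, for each of two replicates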
Scale: firefly reporter light: higher = more light from androgen-responsive reporter; Renilla control light: higher = more constitutive control signal (cell number, transfection)
Rule for the call: 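Hit when the log firefly-to-Renilla ratio dropped or increased by a fixed fold versus the mean of GFP or LacZ controls across duplicate plates; lowering cut given as 1.5 and as 3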
Calls: active = hit: reporter lowered or raised; inactive = no hit

| gene knocked down | DRSC id | firefly reporter light, replicate 1 | firefly reporter light, replicate 2 | Renilla control light, replicate 1 | Renilla control light, replicate 2 | Outcome |
| --- | --- | --- | --- | --- | --- | --- |
| mms4 | DRSC06249 | 2.15e5 | 1.98e5 | 1.60e6 | 1.47e6 | inactive |
| dysf | DRSC14529 | 1.46e5 | 1.64e5 | 3.26e6 | 3.03e6 | inactive |
| dysf | DRSC14895 | 2.75e5 | 2.75e5 | 2.12e6 | 1.84e6 | inactive |
| dysf | DRSC14896 | 1.91e5 | 1.89e5 | 2.70e6 | 1.93e6 | inactive |
| CG3163 | DRSC04341 | 7.29e5 | 8.24e5 | 1.13e6 | 1.05e6 | inactive |
| CG3163 | DRSC28242 | 2.89e5 | 4.80e5 | 8.38e5 | 1.29e6 | inactive |
| cyp33 | DRSC07600 | 1.44e6 | 1.58e6 | 2.76e6 | 3.23e6 | inactive |
| l(2)dtl | DRSC04697 | 3.94e5 | 3.34e5 | 1.16e6 | 1.06e6 | inactive |
| l(2)dtl | DRSC26021 | 2.25e5 | 1.76e5 | 7.43e5 | 6.18e5 | inactive |
| t-Grip84 | DRSC10904 | 1.36e5 | 1.82e5 | 1.44e6 | 2.09e6 | inactive |
| CG15530 | DRSC15067 | 2.08e5 | 2.20e5 | 2.77e6 | 3.27e6 | inactive |
| CG15530 | DRSC29873 | 9.68e5 | 4.96e5 | 8.77e5 | 9.34e5 | inactive |
| CG13325 | DRSC06362 | 2.33e6 | 1.76e6 | 1.96e6 | 1.67e6 | inactive |
| CG13325 | DRSC24773 | 9.22e5 | 8.46e5 | 1.12e6 | 1.25e6 | inactive |
| ALiX | DRSC14564 | 58967 | 86857 | 8.09e5 | 7.67e5 | inactive |
| ALiX | DRSC27006 | 5.42e5 | 4.89e5 | 8.57e5 | 5.50e5 | inactive |
| CG34219 | DRSC38680 | 7.31e5 | 7.13e5 | 1.35e6 | 2.46e6 | inactive |
| Mt2 | DRSC03374 | 1.80e5 | 1.33e5 | 7.98e5 | 1.25e6 | inactive |
| spag4 | DRSC02973 | 1.78e5 | 1.83e5 | 1.34e6 | 1.71e6 | inactive |
| CG31268 | DRSC13203 | 1.50e5 | 2.04e5 | 2.30e5 | 3.06e5 | inactive |
| CG8814 | DRSC00707 | 7.63e5 | 9.70e5 | 3.07e6 | 2.53e6 | inactive |
| CG8814 | DRSC25994 | 4.77e5 | 5.34e5 | 8.56e5 | 8.66e5 | inactive |
| CG33143 | DRSC04151 | 3.29e5 | 3.26e5 | 2.61e6 | 2.00e6 | inactive |
| CG33143 | DRSC04454 | 1.68e5 | 1.58e5 | 1.55e6 | 1.22e6 | inactive |
| CG33143 | DRSC27587 | 2.25e5 | 2.60e5 | 4.58e5 | 6.98e5 | inactive |
| Mal-A2 | DRSC07460 | 3.78e5 | 5.41e5 | 2.44e6 | 1.99e6 | inactive |
| Pbgs | DRSC09718 | 2.07e5 | 2.14e5 | 1.83e6 | 1.87e6 | inactive |
| CG4691 | DRSC01950 | 9.75e5 | 1.25e6 | 1.25e6 | 1.34e6 | inactive |
| CG4691 | DRSC27902 | 7.00e5 | 4.85e5 | 2.31e6 | 1.27e6 | inactive |
| CG6357 | DRSC06979 | 1.18e6 | 5.21e5 | 2.77e6 | 1.38e6 | inactive |
| CG15385 | DRSC00399 | 1.01e5 | 1.27e5 | 6.71e5 | 9.81e5 | inactive |
| CG15385 | DRSC39280 | – | – | – | – | inactive |
| CG15385 | DRSC39302 | – | – | – | – | inactive |
| Proc | DRSC22998 | 6.35e5 | 9.43e5 | 3.58e5 | 5.82e5 | inactive |
| Acsx1R | DRSC14339 | 2.71e5 | 2.90e5 | 2.94e6 | 2.97e6 | inactive |
| CG17600 | DRSC20640 | 1.63e5 | 84536 | 2.14e5 | 2.40e5 | inactive |
| CG17600 | DRSC22753 | 6.22e5 | 1.06e6 | 8.23e5 | 1.29e6 | inactive |
| CG17600 | DRSC27203 | 2.94e5 | 1.29e5 | 7.07e5 | 2.28e5 | inactive |
| CG42272 | DRSC08766 | 2.35e5 | 1.88e5 | 6.49e5 | 5.17e5 | inactive |
| CG42272 | DRSC22502 | 10322 | 28186 | 30108 | 42420 | inactive |
| CG42272 | DRSC23490 | 6.98e5 | 6.43e5 | 6.65e5 | 7.19e5 | inactive |
| CG42272 | DRSC27670 | 1.97e5 | 1.93e5 | 3.87e5 | 7.77e5 | inactive |
| CG15425 | DRSC00440 | 1.24e5 | 1.23e5 | 7.90e5 | 9.64e5 | inactive |
| CG15425 | DRSC24897 | 8.48e5 | 9.09e5 | 1.19e6 | 1.17e6 | inactive |
| CG14011 | DRSC02343 | 1.26e5 | 1.02e5 | 1.62e6 | 1.22e6 | inactive |
| CG14011 | DRSC27954 | 6.16e5 | 5.23e5 | 2.49e6 | 1.34e6 | inactive |
| CG11584 | DRSC19408 | 3.26e5 | 3.41e5 | 2.88e6 | 3.38e6 | inactive |
| CG11584 | DRSC25623 | 5.16e5 | 5.38e5 | 7.75e5 | 6.93e5 | inactive |
| Cyp303a1 | DRSC03300 | 1.66e5 | 1.19e5 | 2.13e6 | 1.20e6 | inactive |
| CG11029 | DRSC02119 | 1.21e5 | 1.68e5 | 9.69e5 | 1.36e6 | inactive |
| CG8012 | DRSC10951 | 3.42e5 | 2.52e5 | 4.01e6 | 2.96e6 | inactive |
| Shc | DRSC11284 | 2.81e5 | 1.56e5 | 2.15e6 | 1.33e6 | inactive |
| mRpL51 | DRSC02200 | 5.16e5 | 8.24e5 | 1.83e6 | 1.94e6 | inactive |
| mRpL51 | DRSC29908 | 3.10e5 | 2.90e5 | 1.05e6 | 1.22e6 | inactive |
| Bfc | DRSC08623 | 1.91e5 | 2.08e5 | 2.78e6 | 2.47e6 | inactive |
| Eig71Eg | DRSC11154 | 2.84e5 | 2.11e5 | 2.91e6 | 2.48e6 | inactive |
| CG9582 | DRSC03267 | 1.40e5 | 1.37e5 | 1.22e6 | 1.15e6 | inactive |
| idc | DRSC15680 | 64222 | 42577 | 3.50e5 | 4.78e5 | inactive |
| CG12128 + CG1407 | DRSC06446 | 7.75e5 | 9.24e5 | 1.91e6 | 1.81e6 | inactive |
| dyl | DRSC08466 | 8.69e5 | 9.08e5 | 1.20e6 | 1.42e6 | inactive |
| dyl | DRSC08467 | 2.28e5 | 1.93e5 | 2.30e6 | 2.52e6 | inactive |
| dyl | DRSC24188 | 5.32e5 | 3.03e5 | 6.04e5 | 5.76e5 | inactive |
| CG6931 | DRSC10750 | 1.45e6 | 5.18e5 | 1.62e6 | 1.14e6 | inactive |
| Tina-1 | DRSC04317 | 1.30e6 | 1.24e6 | 1.75e6 | 2.10e6 | inactive |
| CG13561 | DRSC04199 | 3.18e5 | 4.26e5 | 3.21e6 | 2.77e6 | inactive |
| CG31788 | DRSC01630 | 1.90e5 | 1.80e5 | 6.20e5 | 6.60e5 | inactive |
| CG18371 | DRSC06733 | 78005 | 85413 | 1.65e6 | 1.65e6 | inactive |
| CG33700 | DRSC37793 | 5.12e5 | 4.15e5 | 1.73e6 | 8.58e5 | inactive |
| ase | DRSC18739 | 2.11e5 | 2.45e5 | 3.26e6 | 2.66e6 | inactive |
| CG14720 | DRSC14942 | 1.16e5 | 1.36e5 | 1.85e6 | 1.29e6 | inactive |
| CG10553 | DRSC14254 | 2.83e5 | 2.00e5 | 3.26e6 | 3.00e6 | inactive |
| Tsp68C | DRSC09295 | 1.50e5 | 61953 | 2.32e5 | 1.78e5 | inactive |
| Tsp68C | DRSC28942 | 5.75e5 | 5.41e5 | 9.39e5 | 7.99e5 | inactive |
| SrpRalpha | DRSC20251 | 89226 | 76158 | 4.35e5 | 3.68e5 | inactive |

An excerpt from above, reduced to “firefly reporter light, replicate 1”:
mms4 [DRSC06249]	2.15e5
dysf [DRSC14529]	1.46e5
dysf [DRSC14895]	2.75e5
dysf [DRSC14896]	1.91e5
CG3163 [DRSC04341]	7.29e5
CG3163 [DRSC28242]	2.89e5
cyp33 [DRSC07600]	1.44e6
l(2)dtl [DRSC04697]	3.94e5
